Laboratory results taken from article PMC10746174.
Results are given in words; binding and its absence hold for the method and conditions named. In cells and extracts the contact can be indirect. A result given as binding can be weak or reduced; the word gives no strength.

By UniProt entry, the sequences of proteins in these tests, tags left out. Where a name states a change or a piece, a line headed by the entry shows the natural chain unless it says otherwise.
UniProt P33927: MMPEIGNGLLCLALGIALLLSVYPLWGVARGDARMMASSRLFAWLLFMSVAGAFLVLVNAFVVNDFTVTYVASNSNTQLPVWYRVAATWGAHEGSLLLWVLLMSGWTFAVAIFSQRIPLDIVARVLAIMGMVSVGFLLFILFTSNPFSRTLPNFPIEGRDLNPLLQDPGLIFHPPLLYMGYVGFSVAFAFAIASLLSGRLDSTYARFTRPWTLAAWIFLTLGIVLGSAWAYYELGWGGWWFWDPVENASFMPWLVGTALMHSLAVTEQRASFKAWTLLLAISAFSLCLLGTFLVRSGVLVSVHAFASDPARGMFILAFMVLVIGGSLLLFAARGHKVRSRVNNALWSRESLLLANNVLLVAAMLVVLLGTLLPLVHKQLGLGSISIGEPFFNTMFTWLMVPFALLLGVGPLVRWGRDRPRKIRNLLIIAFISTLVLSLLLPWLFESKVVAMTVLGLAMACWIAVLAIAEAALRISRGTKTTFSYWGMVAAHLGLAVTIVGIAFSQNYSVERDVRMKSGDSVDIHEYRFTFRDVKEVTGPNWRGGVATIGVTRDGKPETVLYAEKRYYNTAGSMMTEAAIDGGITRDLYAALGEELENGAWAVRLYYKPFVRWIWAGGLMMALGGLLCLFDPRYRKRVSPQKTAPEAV

Legend:
Experiment in all cases: pull-down; CcmF:6×His (C-terminal tag) co-expressed with the complete System I pathway in E. coli Δccm (RK103) and affinity purified; 5 µg of purified protein separated by SDS-PAGE; immunoblots with α-CcmH and α-CcmE, heme stain for holoCcmE
[1] = target: CcmF:6×His G237A (E. coli) (UniProt P33927)
[2] = target: CcmF:6×His P244C (E. coli) (UniProt P33927)
[3] = target: CcmF:6×His Y231C (E. coli) (UniProt P33927)

Measured: binding

B1: CcmH (protein, UniProt P0ABM9 19-350)
chain: TIDVLQFKDEAQEQQFRQLTEELRCPKCQNNSIADSNSMIATDLRQKVYELMQEGKSKKEIVDYMVARYGNFVTYDPPLTPLTVLLWVLPVVAIGIGGWVIYARSRRRVRVVPEAFPEQSVPEGKRAGYVVYLPGIVVALIVAGVSYYQTGNYQQVKIWQQATAQAPALLDRALDPKADPLNEEEMSRLALGMRTQLQKNPGDIEGWIMLGRVGMALGNASIATDAYATAYRLDPKNSDAALGYAEALTRSSDPNDNRLGGELLRQLVRTDHSNIRVLSMYAFNAFEQQRFGEAVAAWEMMLKLLPANDTRRAVIERSIAQAMQHLSPQESK
binds: all assays above
